The test system of the data set is skin. As to conditions: after 24 hours.

As to `CCN(CC)CC(=O)Nc1c(C)cccc1C` [^14C-lidocaine], the “lidocaine remained in the patch” value is on record as less than 3%.

These data come from patent US20090010998A1 (priority 2007, published 2009).
